No constants are given. Whether binding was seen depends on the method and setting. Binding can be weak; no strength is given.
Biological target: ND2.1.3
Experiment: dot blot (FIG. 2B); ND2.1.3 is the weaker comparator

binding: binds
B1: biotinylated Src 40-58 peptide (peptide)
peptide: KPASADGHRGPSAAFVPAA
modifications: biotinylated (position not given)

— patent US20140274906A1 (NONO, published 2014)
